# Changes are numbered by the printed parent chain. No constants are given. Whether binding was seen depends on the method and setting. Some results given as binding are weak or reduced against the parent protein; the word gives no strength.
# T1: cynomolgus monkey CD37 (Macaca fasicularis CD37) (cynomolgus monkey (Macaca fasicularis as printed))
# T1 sequence: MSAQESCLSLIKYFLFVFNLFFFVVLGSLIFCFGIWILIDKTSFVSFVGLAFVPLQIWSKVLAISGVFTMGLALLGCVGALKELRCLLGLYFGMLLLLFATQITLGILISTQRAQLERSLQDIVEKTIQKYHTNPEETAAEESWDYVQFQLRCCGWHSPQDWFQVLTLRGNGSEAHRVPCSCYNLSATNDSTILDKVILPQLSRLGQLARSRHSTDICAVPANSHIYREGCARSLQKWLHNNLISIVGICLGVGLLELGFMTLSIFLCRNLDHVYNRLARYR
# B1: anti-hCD37 Ab1.D1 (antibody, human IgG1, kappa, name in Kabat numbering, V domains shown)
# VH: QVQLVQSGAEVKKPGASVKVSCKASGYTFTGYNVNWVRQNNGQRLEWMGNIDPYYGGTTYNRKFKGRVTITVDTSASTAYMELKSLRSEDTAVYYCARSVGPMDYWGQGTLVTVSS
# VL: DIQMTQSPSSLSASVGDRVTITCRTSENVYSYLAWYQQKPGKAPKLLIYFAKTIAEGVPSRFSGSGSGTQFTLTISSLQPEDSASYYCQHHSDNPWTFGGGTELEIKR
# B2: anti-hCD37 Ab1.F3 (antibody, human IgG1, kappa, name in Kabat numbering, V domains shown)
# VH: B1 VH with V34L
# VL: B1 VL with I54L, S92T
# B3: anti-hCD37 Ab1.G3 (antibody, human IgG1, kappa, name in Kabat numbering, V domains shown)
# VH: B1 VH with V34L
# VL: B1 VL with I54L, D93E
# B4: anti-hCD37 Ab1.F7 (antibody, human IgG1, kappa, name in Kabat numbering, V domains shown)
# VH: B1 VH with V34M, K65Q
# VL: B1 VL with I54L, S92T
# B5: anti-hCD37 Ab1.G7 (antibody, human IgG1, kappa, name in Kabat numbering, V domains shown)
# VH: B1 VH with V34M, K65Q
# VL: B1 VL with I54L, D93E
# B6: anti-hCD37 Ab1.D11 (antibody, human IgG1, kappa, name in Kabat numbering, V domains shown)
# VH: B1 VH with V34M, M103L
# VL: B1 VL
# B7: anti-hCD37 Ab1.H7 (antibody, human IgG1, kappa, name in Kabat numbering, V domains shown)
# VH: B1 VH with V34M, K65Q
# VL: B1 VL with I54L, N94D
# Target: T1, cynomolgus monkey CD37 (Macaca fasicularis CD37) (cynomolgus monkey (Macaca fasicularis as printed))
# Test: FACS on CD20+ gated cynomolgus monkey PBMCs, compared with anti-hCD37 Ab1
row,Binder,binding
1,B1,binds
2,B2,binds
3,B3,binds
4,B4,binds
5,B5,binds

# Target: T1, cynomolgus monkey CD37 (Macaca fasicularis CD37) (cynomolgus monkey (Macaca fasicularis as printed))
# Test: FACS on CD20+ gated cynomolgus monkey PBMCs
row,Binder,binding
1,B6,binds
2,B7,binds

# From patent publication US20240059785A1
